Measured values from PMC11910213.
Results are given in words; binding and its absence hold for the method and conditions named. Binding seen in cells or lysates may run through a third protein. Some results given as binding are weak or reduced against the parent protein; the word gives no strength.

Chains of the proteins cited; added tags and fusions are not shown.
UniProt Q14145: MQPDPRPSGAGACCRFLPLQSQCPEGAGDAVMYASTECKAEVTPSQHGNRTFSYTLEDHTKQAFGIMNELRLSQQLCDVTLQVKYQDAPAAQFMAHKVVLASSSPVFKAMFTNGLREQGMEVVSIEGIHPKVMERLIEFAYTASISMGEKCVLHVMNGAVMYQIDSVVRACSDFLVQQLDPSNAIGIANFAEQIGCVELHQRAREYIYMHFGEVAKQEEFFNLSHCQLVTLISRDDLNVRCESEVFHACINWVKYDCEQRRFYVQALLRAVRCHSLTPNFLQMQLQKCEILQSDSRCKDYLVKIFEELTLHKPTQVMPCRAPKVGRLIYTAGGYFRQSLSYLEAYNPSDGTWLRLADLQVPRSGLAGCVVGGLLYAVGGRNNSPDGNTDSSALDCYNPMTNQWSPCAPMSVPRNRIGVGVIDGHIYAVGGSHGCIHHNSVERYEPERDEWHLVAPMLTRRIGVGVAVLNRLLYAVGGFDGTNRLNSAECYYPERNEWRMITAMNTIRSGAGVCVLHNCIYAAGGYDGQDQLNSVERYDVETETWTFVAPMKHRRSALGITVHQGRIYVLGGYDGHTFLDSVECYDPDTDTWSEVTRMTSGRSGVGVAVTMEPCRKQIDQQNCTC
UniProt O14744: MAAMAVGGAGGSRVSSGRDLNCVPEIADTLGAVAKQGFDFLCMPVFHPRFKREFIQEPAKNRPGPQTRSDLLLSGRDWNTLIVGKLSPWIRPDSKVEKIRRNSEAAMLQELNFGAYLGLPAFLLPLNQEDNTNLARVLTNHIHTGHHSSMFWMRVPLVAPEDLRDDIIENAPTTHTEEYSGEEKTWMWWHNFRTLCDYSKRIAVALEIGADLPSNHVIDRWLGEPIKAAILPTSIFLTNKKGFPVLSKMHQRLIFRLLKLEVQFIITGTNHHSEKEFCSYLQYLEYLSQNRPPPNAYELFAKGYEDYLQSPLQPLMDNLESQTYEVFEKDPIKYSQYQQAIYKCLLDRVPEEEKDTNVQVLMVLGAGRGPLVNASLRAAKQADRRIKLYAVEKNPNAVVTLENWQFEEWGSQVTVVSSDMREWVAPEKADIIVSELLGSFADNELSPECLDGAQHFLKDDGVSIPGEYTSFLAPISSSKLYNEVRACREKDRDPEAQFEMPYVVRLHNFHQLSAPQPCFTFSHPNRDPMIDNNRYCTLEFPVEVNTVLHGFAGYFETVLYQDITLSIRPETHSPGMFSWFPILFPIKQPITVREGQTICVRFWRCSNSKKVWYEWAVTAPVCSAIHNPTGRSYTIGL

Target: Kelch-like ECH-associated protein 1 (KEAP1), FLAG-tagged (UniProt Q14145)
Assay: co-IP; FLAG-KEAP1 overexpressed in HEK 293 cells, 1 uM MG132 added after 24 hours, lysed at 48 hours in co-IP buffer (50 mM Tris pH 8.0, 0.5% NP-40, 200 mM NaCl, 0.1 mM EDTA, 10% glycerol); precipitated with anti-FLAG antibody and protein A/G magnetic beads at 4°C; Western blot

binding: binds
Substance: protein arginine methyltransferase 5 (PRMT5) (from UniProt O14744 1-637)
